Source: publication PMC10163288
This is one part of the list.

B1: il2ra_site1_2b5i_normal_mot_HHH_b2_04910_000000118_0001_1_19_H_._HHH_b1_00060_af2_0001_0000500033_0000001_0_af2pred_0001_af2pred (protein)
chain: SSSSSELAEEAWELMREANELFKNGNPEEAHELLEEALRLAREGNNPNLARSIESMLEQAKSSSS
B2: il2ra_site2_2erj_normal_mot_HHH_b1_03609_af2_000000077_0001_42_55_H_._HHH_b1_04774_af2_0001_0000200008_0000001_0 (protein)
chain: SSSSDEEEERVRELLEEARELAKNGNPEEAWEVLREASELAFELGDFELWAEIAELLRELASSSS
B3: il2ra_site2_3nfp_sap_20_mot_HHH_b1_01086_000000225_0001_20_36_H_._HHH_b2_07053_0001_0000600014_0000001_0_0001 (protein)
chain: SSSSELEEYLRAALELAREALEEGDPELARRSLELALLSAEDAGDEEVLEEVEELLREVTSSSSS
B4: il2ra_site2_3nfp_sap_7_mot_73f63e3ba0c5fbd29b02c38bc3203c89_0001_1_000000101_0001_17_33_H_._HHH_b1_06312_0001_0000100001_0000001_0_0001 (protein)
chain: PVEELVEEVAKILGDPEFEETVKRALERLEEEGDEQALEYIEAALALIVEFNDPRLARRLLELLN
B5: il2ra_site1_2b5i_normal_mot_HHH_b2_01648_000000060_0001_42_56_H_._HHH_b1_05011_0001_0000300022_0000001_0 (protein)
chain: SSSSSRFIRRVLEDAREFFKELLEEGDEEALEKLLRELERLLELSRDPAAEELLRELEELLSSSS
B6: il2ra_site1_3nfp_sap_19_mot_HHH_b2_07201_af2_000000232_0001_1_20_H_._HHH_b1_07563_af2_0001_0000500024_0000001_0_0001_af2pred_0001_af2pred_1 (protein)
chain: SSRERLRRAREEGTLEELVERLLRRAAETTGDPERAKRILKSDLKKAGIPPEEVERLVKEAEELR
B7: il2ra_site2_3nfp_normal_mot_HHH_b1_06613_af2_000000098_0001_23_40_H_._HHH_b1_08035_af2_0001_0000100004_0000001_0 (protein)
chain: SSSSDELEELLKQAEELIEEGDPEEARQVLARAADVAYELGDHEAFAEIADLILLVLELESSSSS
B8: il2ra_site1_1z92_sap_29_mot_HHH_b2_01229_000000127_0001_19_35_H_._HHH_b2_00723_0001_0000100001_0000001_0_0001_af2pred_0001_af2pred_1 (protein)
chain: SSSSSTEELLRFLEEQARLKYERGNPEAAEKLIRHAKEEAEFAEDEEVLEELEKLEEELRSSSSS
B9: il2ra_site2_3nfp_sap_17_mot_HHH_b1_03612_af2_000000124_0001_42_57_H_._aee0ae143b6496be80667c74f1cea33a_0001_1_0001_0000300031_0000001_0_0001 (protein)
chain: SSSSDLEELLEELEQLIEEGNAHEAMQLAEEIHKLALKNNDPEALRAVLELYALLAKLYNRSSSS
B10: il2ra_site2_3nfp_sap_20_mot_HHH_b1_05627_af2_000000038_0001_43_56_H_._HHH_b2_05144_0001_0000100002_0000001_1_0001 (protein)
chain: SSSSSSDEAEKYIRAALELAKNIEDPRAARKTVELALKAAESNGDEELFQEAEELLEELSSSSSS
B11: il2ra_site1_1z92_normal_mot_01209686ea234b34325f918445e6eade_0001_af2_000000154_0001_18_33_H_._HHH_b2_04498_0001_0000200011_0000001_0_af2pred_0001_af2pred (protein)
chain: SSSSSDEEERIVEELIEELGGSEEEKEAAEKDAEAARRNGLSEENIRKALEKNIRAALELSSSSS
B12: il2ra_site2_2erj_normal_mot_HHH_b1_00839_000000020_0001_43_57_H_._HHH_b2_05093_0001_0000200001_0000001_0 (protein)
chain: SSSSSDHHEVAERVAELLQEARQIPDPEEREKVLEEARELAEENNNEFLRRFVEYVRRYLSSSSS
B13: il2ra_site2_2erj_normal_mot_HHH_b1_08185_000000063_0001_41_55_H_._HHH_b2_05996_0001_0000100004_0000001_0 (protein)
chain: SSSSSDEIEEEVLELIAEAAHVPDPKEAVEILREALELAEEYGNELLRRYLELSIKDIEGSSSSS
B14: il2ra_site2_3nfp_normal_mot_HHH_b1_05627_af2_000000038_0001_43_56_H_._HHH_b1_04509_0001_0000500028_0000001_0 (protein)
chain: SSSSDKQERYLRAALLVLREAVEHNNPELVQSHAEAAAALAEALRDPEVLREIEEILEELSSSSS
B15: il2ra_site1_2b5i_sap_14_mot_22370d59370c406a0c205a431f537cfa_0001_af2_000000057_0001_1_31_H_._1fb8bc4d5eb7dfe49bc92abe725735fb_0001_1_0002_0000300021_0000001_0_ … (protein)
chain: SSSSSSKAEEARKLLLDLDKKLKELSEEEQKKYLEEAKEKLKKLKHPSLIKIVEAALKKLSSSSS
B16: il2ra_site1_2b5i_sap_22_mot_HHH_b2_01283_af2_000000044_0001_1_16_H_._HHH_b1_00972_af2_0001_0000500028_0000001_0_0001_af2pred_dldesign_0_af2pred (protein)
chain: SSSSSDAAKALELFLEADKLFQAGKEEEAKEKLEEALKVARAAGANLLVRMIESALKQLESSSSS
B17: il2ra_site1_1z92_sap_15_mot_HHH_b1_00738_af2_000000244_0001_43_57_H_._HHH_eva_0006_af2_0001_0000200007_0000001_0_0001_af2pred_0001_af2pred_1_swapped (protein)
chain: SSAEKEFESARKLGIPPERIVRAMVKDVERRDPRLREEAEELLERVERGELPPEEAVKLLMELTE
B18: il2ra_site1_1z92_sap_10_mot_HHH_b1_07537_af2_000000083_0001_43_56_H_._HHH_b1_07363_af2_0001_0000800041_0000001_1_0001 (protein)
chain: SSSSSERQARIVVKIAVEVAKLSEEQKEELEELAEELVKRGLSFLEILKELDRLAVELASSSSSS
B19: il2ra_site1_3nfp_normal_mot_ems_3hC_836_0002_000000087_0001_24_40_H_._9ebc464cd7f6471d5ebf9a8082ac34f1_0001_0001_0000100003_0000001_0 (protein)
chain: DEEEIKERIEELLKRDPEEAHEHAYKLLKEAIQNRDPEKARVVLEALLLVTGDPKVERALETARR
B20: il2ra_site2_2erj_normal_mot_HHH_b1_01129_af2_000000281_0001_18_33_H_._HHH_b1_06416_0001_0000300013_0000001_0 (protein)
chain: SSSSSSDYEERVEELLEQVEESDDLEELYELLNEALRLASEAQNPELLELIWEVVEKHSSSSSSS
B21: il2ra_site2_3nfp_normal_mot_HHH_b1_03557_000000106_0001_41_55_H_._HHH_b2_00561_0001_0000400025_0000001_0_af2pred_0001_1_af2pred_swapped (protein)
chain: SSSSSDEEREEVEELLEEAEHIEDEREVFIVLVEAFFLALELRDPELERLVREFLKEFRSSSSSS
B22: il2ra_site2_2erj_normal_mot_HHH_b2_01455_000000042_0001_1_17_H_._HHH_b1_05944_0001_0000100002_0000001_0_af2pred_0001_af2pred (protein)
chain: SSSSSELEEFIEELKRKFNLSEEAEELLEEAAEFAKEAGVDERLIERALELHAERLAEQLSSSSS
B23: il2ra_site2_2erj_normal_mot_6bd1339e93f6fdda22195c76da45ec5d_0001_000000136_0001_37_51_H_._ems_3hC_696_0001_0000700021_0000001_0_af2pred_0001_af2pred (protein)
chain: LEEDILRAFRIAVELLEKFRDDPEIERLVLEASLELTEAIEENDEEKIERVIEKIEEIKEEADSS
B24: il2ra_site2_3nfp_normal_mot_HHH_b2_06320_000000197_0001_39_53_H_._3e5e4a15067cbc373d7c33478bca156f_0001_af2_0001_0000100002_0000001_0 (protein)
chain: DERELIRELVLSGDPILFAIANVLAEARILGDEEVVEEIEKLIEELEKGELPPEEVLRLVARLLR

Biological target: il2ra, P01589
Experiment: yeast display titration

Binder | apparent Kd
B1 | inactive: no binding seen
B2 | inactive: no binding seen
B3 | inactive: no binding seen
B4 | inactive: no binding seen
B5 | inactive: no binding seen
B6 | inactive: no binding seen
B7 | inactive: no binding seen
B8 | inactive: no binding seen
B9 | inactive: no binding seen
B10 | inactive: no binding seen
B11 | inactive: no binding seen
B12 | inactive: no binding seen
B13 | inactive: no binding seen
B14 | inactive: no binding seen
B15 | inactive: no binding seen
B16 | inactive: no binding seen
B17 | inactive: no binding seen
B18 | inactive: no binding seen
B19 | inactive: no binding seen
B20 | inactive: no binding seen
B21 | inactive: no binding seen
B22 | inactive: no binding seen
B23 | inactive: no binding seen
B24 | inactive: no binding seen

A stretch from the list above, as a working copy:
Binder | apparent Kd
B22 | inactive: no binding seen
B23 | inactive: no binding seen
